Measurements as given in PMC11066007, “CORVET-specific subunit levels determine the balance between HOPS/CORVET endosomal tethering complexes” (Scientific Reports, 2024).
These are yes or no findings as the source states them, for the method shown. For some assays here: In cells and extracts the contact can be indirect. Some entries that bind do so weakly or less than the wild type. Where a sequence is shown, tags or fusion partners need not be part of it.

Experiments:
[1] = target: T1, VPS18 (human (endogenous in HEK293)) (UniProt Q9P253); experiment: co-IP; anti-FLAG beads on total lysates of HEK293 cells stably transfected with a FLAG-tagged specific subunit, with or without transient overexpression of the counterpart subunit (control: pCMV); endogenous VPS11 and VPS18 detected by western blot, densitometry with ImageJ; lysis buffer 50 mM TRIS-HCl pH 7.5, 150 mM NaCl, 1% Triton X-100, 5 mM EDTA; 1.5 h at 4 °C
T1 sequence: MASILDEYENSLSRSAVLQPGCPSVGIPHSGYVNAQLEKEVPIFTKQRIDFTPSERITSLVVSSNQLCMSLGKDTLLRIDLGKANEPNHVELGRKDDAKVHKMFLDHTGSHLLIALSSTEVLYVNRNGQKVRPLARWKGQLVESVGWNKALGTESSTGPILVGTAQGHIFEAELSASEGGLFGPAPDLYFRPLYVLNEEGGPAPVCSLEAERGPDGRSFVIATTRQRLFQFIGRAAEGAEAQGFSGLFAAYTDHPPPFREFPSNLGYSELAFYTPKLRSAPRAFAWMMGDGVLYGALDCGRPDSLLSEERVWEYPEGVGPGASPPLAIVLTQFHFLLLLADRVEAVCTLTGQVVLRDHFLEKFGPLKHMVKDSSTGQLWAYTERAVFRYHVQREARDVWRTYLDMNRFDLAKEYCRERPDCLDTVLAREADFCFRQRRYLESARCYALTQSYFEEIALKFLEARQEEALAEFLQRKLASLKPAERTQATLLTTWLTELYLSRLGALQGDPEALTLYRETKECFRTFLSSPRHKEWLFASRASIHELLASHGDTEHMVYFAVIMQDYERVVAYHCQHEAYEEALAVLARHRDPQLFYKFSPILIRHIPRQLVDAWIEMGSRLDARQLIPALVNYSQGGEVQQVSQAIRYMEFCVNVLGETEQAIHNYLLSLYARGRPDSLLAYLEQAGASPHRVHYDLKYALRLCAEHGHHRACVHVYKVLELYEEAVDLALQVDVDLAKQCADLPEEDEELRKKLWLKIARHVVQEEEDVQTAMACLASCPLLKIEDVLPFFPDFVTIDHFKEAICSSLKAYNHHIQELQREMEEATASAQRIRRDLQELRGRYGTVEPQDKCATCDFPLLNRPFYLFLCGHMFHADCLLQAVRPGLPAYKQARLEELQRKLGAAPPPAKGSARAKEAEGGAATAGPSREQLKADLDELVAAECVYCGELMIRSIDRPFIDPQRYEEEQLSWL

[2] = target: T2, VPS11 (human (endogenous in HEK293)) (UniProt Q9H270); experiment: as above
T2 sequence: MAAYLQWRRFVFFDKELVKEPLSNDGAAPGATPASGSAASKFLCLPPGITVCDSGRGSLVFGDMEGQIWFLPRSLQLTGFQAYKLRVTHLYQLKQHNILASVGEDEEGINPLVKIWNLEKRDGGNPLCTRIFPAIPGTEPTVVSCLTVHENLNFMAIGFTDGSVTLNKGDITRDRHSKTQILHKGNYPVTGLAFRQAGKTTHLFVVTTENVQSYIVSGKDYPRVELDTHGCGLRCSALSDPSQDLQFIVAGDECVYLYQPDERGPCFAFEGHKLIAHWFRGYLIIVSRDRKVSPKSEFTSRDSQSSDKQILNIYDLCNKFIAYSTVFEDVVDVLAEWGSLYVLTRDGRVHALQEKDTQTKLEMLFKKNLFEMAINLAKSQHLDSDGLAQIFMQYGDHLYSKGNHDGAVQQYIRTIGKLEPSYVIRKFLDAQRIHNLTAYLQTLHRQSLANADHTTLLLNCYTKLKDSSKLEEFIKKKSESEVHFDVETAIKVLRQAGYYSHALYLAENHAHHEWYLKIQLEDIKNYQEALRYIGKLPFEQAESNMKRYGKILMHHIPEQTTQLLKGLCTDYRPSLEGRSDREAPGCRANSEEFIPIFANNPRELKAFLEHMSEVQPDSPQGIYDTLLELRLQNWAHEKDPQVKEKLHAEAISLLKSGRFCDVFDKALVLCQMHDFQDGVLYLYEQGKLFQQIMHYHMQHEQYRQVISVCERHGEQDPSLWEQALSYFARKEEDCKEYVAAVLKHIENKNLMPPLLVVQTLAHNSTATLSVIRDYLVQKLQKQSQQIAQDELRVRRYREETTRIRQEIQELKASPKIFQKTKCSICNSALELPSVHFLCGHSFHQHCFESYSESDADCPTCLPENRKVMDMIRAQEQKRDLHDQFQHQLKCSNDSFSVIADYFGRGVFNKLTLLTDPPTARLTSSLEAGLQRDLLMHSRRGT

[3] = target: T3, VPS8 (yeast two-hybrid fusion) (human) (UniProt Q8N3P4); experiment: two-hybrid; yeast AH109 co-transformed with pGADT7 and pGBKT7 constructs; selection on SD-WL, interaction read by growth on SD-WL without adenine or histidine; 48 h at 30 °C
T3 sequence: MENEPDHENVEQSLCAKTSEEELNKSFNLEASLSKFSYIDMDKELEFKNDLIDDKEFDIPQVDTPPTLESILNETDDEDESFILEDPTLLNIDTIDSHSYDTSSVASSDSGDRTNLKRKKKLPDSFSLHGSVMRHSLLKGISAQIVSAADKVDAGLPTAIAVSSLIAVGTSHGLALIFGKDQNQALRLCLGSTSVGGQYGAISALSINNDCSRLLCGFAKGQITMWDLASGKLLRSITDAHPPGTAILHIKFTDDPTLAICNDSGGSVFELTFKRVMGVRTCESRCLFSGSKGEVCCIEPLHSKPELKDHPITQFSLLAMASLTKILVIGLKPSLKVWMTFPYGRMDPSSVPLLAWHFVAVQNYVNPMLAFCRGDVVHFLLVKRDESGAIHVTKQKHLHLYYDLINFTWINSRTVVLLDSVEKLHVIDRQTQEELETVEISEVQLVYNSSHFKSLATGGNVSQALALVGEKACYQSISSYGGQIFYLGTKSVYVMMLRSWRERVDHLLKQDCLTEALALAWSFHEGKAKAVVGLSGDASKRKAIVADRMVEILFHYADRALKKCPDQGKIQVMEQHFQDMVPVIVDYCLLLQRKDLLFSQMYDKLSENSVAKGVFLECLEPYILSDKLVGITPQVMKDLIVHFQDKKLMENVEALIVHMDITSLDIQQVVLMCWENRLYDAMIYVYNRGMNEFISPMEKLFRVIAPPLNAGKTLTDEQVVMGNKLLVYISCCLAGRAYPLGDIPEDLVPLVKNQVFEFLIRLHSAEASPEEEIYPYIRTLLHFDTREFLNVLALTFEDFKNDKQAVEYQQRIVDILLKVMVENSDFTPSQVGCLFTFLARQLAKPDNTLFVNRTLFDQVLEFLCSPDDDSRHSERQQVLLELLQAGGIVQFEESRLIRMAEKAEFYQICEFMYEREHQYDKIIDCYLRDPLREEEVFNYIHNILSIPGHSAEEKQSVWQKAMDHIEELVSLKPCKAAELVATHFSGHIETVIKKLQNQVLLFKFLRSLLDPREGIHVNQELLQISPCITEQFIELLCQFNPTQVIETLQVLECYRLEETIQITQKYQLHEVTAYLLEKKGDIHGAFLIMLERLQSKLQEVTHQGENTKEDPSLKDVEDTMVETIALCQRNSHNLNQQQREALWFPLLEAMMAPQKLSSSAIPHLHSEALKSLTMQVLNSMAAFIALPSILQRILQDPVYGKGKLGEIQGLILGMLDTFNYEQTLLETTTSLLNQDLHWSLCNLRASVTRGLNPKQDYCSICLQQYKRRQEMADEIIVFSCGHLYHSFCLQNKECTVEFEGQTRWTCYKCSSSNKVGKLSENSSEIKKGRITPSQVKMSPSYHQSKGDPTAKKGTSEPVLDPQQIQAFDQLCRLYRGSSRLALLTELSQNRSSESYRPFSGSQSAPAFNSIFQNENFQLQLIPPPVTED

[4] = target: T4, VPS41 (yeast two-hybrid fusion) (human) (UniProt P49754); experiment: as above
T4 sequence: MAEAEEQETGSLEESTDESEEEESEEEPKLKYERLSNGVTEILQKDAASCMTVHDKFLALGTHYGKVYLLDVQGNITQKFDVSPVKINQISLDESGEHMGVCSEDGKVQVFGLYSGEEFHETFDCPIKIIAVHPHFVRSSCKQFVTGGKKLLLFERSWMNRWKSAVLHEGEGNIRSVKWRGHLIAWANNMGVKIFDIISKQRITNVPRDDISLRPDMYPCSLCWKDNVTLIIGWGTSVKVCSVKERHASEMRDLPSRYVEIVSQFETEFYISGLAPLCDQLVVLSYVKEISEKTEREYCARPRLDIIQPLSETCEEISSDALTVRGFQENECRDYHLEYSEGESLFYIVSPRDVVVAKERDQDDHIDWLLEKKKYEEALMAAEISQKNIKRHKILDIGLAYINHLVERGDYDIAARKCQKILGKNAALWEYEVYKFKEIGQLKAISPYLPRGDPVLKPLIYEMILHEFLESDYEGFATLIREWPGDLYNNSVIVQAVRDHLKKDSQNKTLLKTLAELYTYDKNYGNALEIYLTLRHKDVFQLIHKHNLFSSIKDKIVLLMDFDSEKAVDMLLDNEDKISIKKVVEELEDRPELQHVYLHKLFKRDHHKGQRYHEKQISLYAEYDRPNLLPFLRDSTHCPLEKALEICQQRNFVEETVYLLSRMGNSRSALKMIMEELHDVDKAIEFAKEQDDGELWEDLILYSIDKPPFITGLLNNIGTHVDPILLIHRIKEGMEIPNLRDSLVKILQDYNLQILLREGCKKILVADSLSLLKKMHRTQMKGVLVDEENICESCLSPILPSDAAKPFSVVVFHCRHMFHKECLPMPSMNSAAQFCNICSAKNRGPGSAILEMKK

B1: Tgfbrap1-HA (protein, UniProt Q8WUH2 1-860)
chain: MMSIKAFTLVSAVERELLMGDKERVNIECVECCGRDLYVGTNDCFVYHFLLEERPVPAGPATFTATKQLQRHLGFKKPVNELRAASALNRLLVLCDNSISLVNMLNLEPVPSGARIKGAATFALNENPVSGDPFCVEVCIISVKRRTIQMFLVYEDRVQIVKEVSTAEQPLAVAVDGHFLCLALTTQYIIHNYSTGVSQDLFPYCSEERPPIVKRIGRQEFLLAGPGGLGMFATVAGISQRAPVHWSENVIGAAVSFPYVIALDDEFITVHSMLDQQQKQTLPFKEGHILQDFEGRVIVATSKGVYILVPLPLEKQIQDLLASRRVEEALVLAKGARRNIPKEKFQVMYRRILQQAGFIQFAQLQFLEAKELFRSGQLDVRELISLYPFLLPTSSSFTRSHPPLHEYADLNQLTQGDQEKMAKCKRFLMSYLNEVRSTEVANGYKEDIDTALLKLYAEADHDSLLDLLVTENFCLLTDSAAWLEKHKKYFALGLLYHYNNQDAAAVQLWVNIVNGDVQDSTRSDLYEYIVDFLTYCLDEELVWAYADWVLQKSEEVGVQVFTKRPLDEQQKNSFNPDDIINCLKKYPKALVKYLEHLVIDKRLQKEEYHTHLAVLYLEEVLLQRASASGKGAEATETQAKLRRLLQKSDLYRVHFLLERLQGAGLPMESAILHGKLGEHEKALHILVHELQDFAAAEDYCLWCSEGRDPPHRQQLFHTLLAIYLHAGPTAHELAVAAVDLLNRHATEFDAAQVLQMLPDTWSVQLLCPFLMGAMRDSIHARRTMQVALGLARSENLIYTYDKMKLKGSSIQLSDKKLCQICQNPFCEPVFVRYPNGGLVHTHCAASRHTNPSSSSPGTRT
- binding [1]: binds
- binding [2]: binds

B2: VPS18 aa 482-854 (yeast two-hybrid fusion) (domain or fragment, UniProt Q9P253 482-854)
chain: PAERTQATLLTTWLTELYLSRLGALQGDPEALTLYRETKECFRTFLSSPRHKEWLFASRASIHELLASHGDTEHMVYFAVIMQDYERVVAYHCQHEAYEEALAVLARHRDPQLFYKFSPILIRHIPRQLVDAWIEMGSRLDARQLIPALVNYSQGGEVQQVSQAIRYMEFCVNVLGETEQAIHNYLLSLYARGRPDSLLAYLEQAGASPHRVHYDLKYALRLCAEHGHHRACVHVYKVLELYEEAVDLALQVDVDLAKQCADLPEEDEELRKKLWLKIARHVVQEEEDVQTAMACLASCPLLKIEDVLPFFPDFVTIDHFKEAICSSLKAYNHHIQELQREMEEATASAQRIRRDLQELRGRYGTVEPQDKCA
- binding [3]: binds
- binding [4]: binds

B3: VPS18 aa 855-973 (yeast two-hybrid fusion) (domain or fragment, UniProt Q9P253 855-973)
chain: TCDFPLLNRPFYLFLCGHMFHADCLLQAVRPGLPAYKQARLEELQRKLGAAPPPAKGSARAKEAEGGAATAGPSREQLKADLDELVAAECVYCGELMIRSIDRPFIDPQRYEEEQLSWL
- binding [3]: binds
